PubChem BioAssay AID493246, Drosophila RNAi Screening Center, 2011
The screen tested about 21,000 reagents; this is a random part of those that have a named target and a result. In the full data, 429 (2%) were called active. 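Values are raw and not normalised between plates; calls rest on per-plate z-scores that were not deposited.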 A plus sign joins genes that one reagent is predicted to hit. Not given: the amount of reagent, the time to read-out.

Aim: 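Identify essential fly genes by loss of cell viability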 (primary screen)
System: Drosophila Kc and S2R+ cells
Reagents: long dsRNA against Drosophila genes
Measurement: 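Raw, unnormalised count of remaining cells in each well; per-plate z-scores of cell number underlie the calls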
Reading the numbers: Kc cell number and S2R+ cell number: higher = more cells remaining
Rule for the call: 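Counted as a hit if cell number falls by a z-score of at least 3 within its plate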

no.	gene knocked down	amplicon	Kc cell number, rep 1	Kc cell number, rep 2	S2R+ cell number, rep 1	S2R+ cell number, rep 2	Outcome
1	hlk (GeneID 46017)	DRSC05021	1.63e6	1.65e6	1.33e6	1.37e6	inactive
2	hlk (GeneID 46017)	DRSC05022	1.62e6	1.57e6	1.42e6	1.31e6	inactive
3	Gr47a (GeneID 36094)	DRSC06221	1.51e6	1.51e6	1.30e6	1.37e6	inactive
4	CG6094 (GeneID 34446)	DRSC02927	1.34e6	1.09e6	7.88e5	7.58e5	inactive
5	CG16719 (GeneID 39131)	DRSC10222	1.40e6	1.42e6	1.31e6	1.26e6	inactive
6	Alg2 (GeneID 38374)	DRSC08298	8.69e5	1.07e6	1.35e6	6.98e5	inactive
7	Acp26Ab (GeneID 33816)	DRSC01856	1.53e6	1.39e6	1.12e6	1.24e6	inactive
8	CG13744 (GeneID 35906)	DRSC06415	1.60e6	1.72e6	1.07e6	1.18e6	inactive
9	Spred (GeneID 36643)	DRSC05976	1.47e6	1.53e6	1.14e6	1.23e6	inactive
10	CG13426 (GeneID 37312)	DRSC06388	1.71e6	1.71e6	1.29e6	1.48e6	inactive
11	loco (GeneID 42672)	DRSC15202	1.56e6	1.55e6	1.02e6	1.12e6	inactive
12	loco (GeneID 42672)	DRSC16989	1.50e6	1.55e6	1.27e6	1.29e6	inactive
13	Gmap (GeneID 32483)	DRSC19988	6.44e5		9.02e5		inactive
14	Gmap (GeneID 32483)	DRSC20057	1.51e6	1.52e6	1.09e6	1.21e6	inactive
15	CG7573 (GeneID 39272)	DRSC10884	1.30e6	1.27e6	1.28e6	1.40e6	inactive
16	CG10352 (GeneID 32147)	DRSC19353	1.71e6	1.61e6	1.08e6	1.19e6	inactive
17	CG8248 (GeneID 35888)	DRSC07124	1.34e6	1.40e6	1.18e6	1.22e6	inactive
18	fest (GeneID 37220)	DRSC07349	1.52e6	1.52e6	1.16e6	1.24e6	inactive
19	Idua (GeneID 34544)	DRSC02941	1.26e6	1.32e6	1.09e6	1.22e6	inactive
20	Kr (GeneID 38012)	DRSC04622	1.68e6	1.56e6	1.37e6	1.47e6	inactive
21	CG2493 (GeneID 35316)	DRSC02707	1.15e6	1.41e6	1.14e6	1.20e6	inactive
22	Manf (GeneID 41983)	DRSC14091	1.56e6	1.62e6	1.12e6	1.19e6	inactive
23	Tdh (GeneID 40268)	DRSC11788	1.89e6	1.92e6	1.18e6	1.30e6	inactive
24	CG7115 (GeneID 34069)	DRSC02000	1.56e6	1.53e6	1.09e6	1.20e6	inactive
25	olf186-M (GeneID 37039)	DRSC07657	1.50e6	1.52e6	1.17e6	1.24e6	inactive
26	CaMKI (GeneID 43792)	DRSC17162	5.52e5		8.49e5		inactive
27	Efa6 (GeneID 42665)	DRSC13569	1.43e6	1.45e6	1.03e6	1.13e6	inactive
28	Efa6 (GeneID 42665)	DRSC15312	1.52e6	1.53e6	7.80e5	8.99e5	inactive
29	Efa6 (GeneID 42665)	DRSC16141	1.58e6	1.52e6	9.04e5	1.06e6	inactive
30	CG6650 (GeneID 39555)	DRSC10685	1.67e6	1.72e6	1.40e6	1.38e6	inactive
31	mus201 + Chrac-14	DRSC03568	1.59e6	1.61e6	1.34e6	1.48e6	inactive
32	mus201 + Chrac-14	DRSC03575	1.53e6	1.68e6	1.29e6	1.53e6	inactive
33	Odj (GeneID 42145)	DRSC16234	1.54e6	1.56e6	1.17e6	1.27e6	inactive
34	CG15864 (GeneID 50001)	DRSC15122	1.55e6	1.63e6	1.32e6	1.50e6	inactive
35	Polr1D + DCTN6-p27	DRSC02094	1.54e6	1.57e6	1.22e6	3.19e5	inactive
36	Keap1 (GeneID 42062)	DRSC15528	1.55e6	1.69e6	1.22e6	1.33e6	inactive
37	eEF1gamma (GeneID 44791)	DRSC16659	1.34e6	1.43e6	7.43e5	8.16e5	inactive
38	CG4594 (GeneID 34316)	DRSC02762	1.27e6	1.33e6	1.27e6	1.19e6	inactive
39	brp (GeneID 35977)	DRSC06245	1.53e6	1.57e6	1.27e6	1.45e6	inactive
40	brp (GeneID 35977)	DRSC06246	1.52e6	1.54e6	1.27e6	1.39e6	inactive
41	brp (GeneID 35977)	DRSC06801	1.59e6	1.60e6	1.25e6	1.44e6	inactive
42	Prp40 (GeneID 33513)	DRSC00612	1.26e6	1.32e6	5.67e5	7.48e5	inactive
43	Gr93c (GeneID 117471)	DRSC14587	1.35e6	1.37e6	1.05e6	1.10e6	inactive
44	CG2017 (GeneID 40733)	DRSC12293	1.61e6	1.66e6	1.26e6	1.34e6	inactive
45	Hil (GeneID 37328)	DRSC05989	1.43e6	1.44e6	1.14e6	1.18e6	inactive
46	Hil (GeneID 37328)	DRSC06395	1.58e6	1.37e6	1.02e6	1.30e6	inactive
47	Alg11 (GeneID 40402)	DRSC11647	1.73e6	1.75e6	1.53e6	1.49e6	inactive
48	Ucp4A (GeneID 32764)	DRSC19996	1.55e6	1.54e6	1.03e6	1.17e6	inactive
49	TfIIS (GeneID 34883)	DRSC03455	1.35e6	1.42e6	1.24e6	1.25e6	inactive
50	CG3907 (GeneID 37832)	DRSC04432	1.55e6	1.54e6	1.21e6	1.35e6	inactive
51	sug (GeneID 36424)	DRSC06855	1.44e6	1.47e6	1.27e6	1.31e6	inactive
52	CG31924 (GeneID 319030)	DRSC00689	1.60e6	1.64e6	1.07e6	1.24e6	inactive
53	CG15822 (GeneID 38273)	DRSC08482	1.45e6	1.29e6	9.92e5	1.28e6	inactive
54	CG15822 (GeneID 38273)	DRSC08483	1.44e6	1.26e6	9.16e5	1.19e6	inactive
55	vlc (GeneID 46078)	DRSC04922	1.50e6	1.54e6	1.25e6	1.32e6	inactive
56	CG3546 (GeneID 31389)	DRSC18308	1.40e6	1.34e6	8.92e5	9.90e5	inactive
57	CG1137 (GeneID 40803)	DRSC12529	1.36e6	1.50e6	1.22e6	1.35e6	inactive
58	sit (GeneID 42658)	DRSC15760	1.63e6	1.62e6	9.87e5	1.15e6	inactive
59	CG3732 (GeneID 37588)	DRSC04410	1.52e6	1.67e6	9.59e5	9.76e5	inactive
60	CG5160 (GeneID 34015)	DRSC02821	1.65e6	1.42e6	1.20e6	1.36e6	inactive
61	Or46a (GeneID 2768728)	DRSC07489	1.67e6	1.64e6	1.38e6	1.51e6	inactive
62	Or46a (GeneID 2768728)	DRSC07490	1.73e6	1.64e6	1.34e6	1.45e6	inactive
63	CG8509 (GeneID 32535)	DRSC20109	5.87e5		7.77e5		inactive
64	eIF4G1 (GeneID 43839)	DRSC17218	3.65e5		7.09e5		inactive
65	CG3819 (GeneID 40069)	DRSC10378	1.66e6	1.65e6	1.26e6	1.47e6	inactive
66	Jwa (GeneID 35128)	DRSC02048	1.31e6	1.45e6	1.33e6	1.27e6	inactive
67	Trf5 (GeneID 33454)	DRSC00412	1.87e6	1.85e6	1.19e6	1.27e6	inactive
68	S-Lap5 (GeneID 36515)	DRSC06732	1.52e6	1.51e6	1.21e6	1.38e6	inactive
69	Spn53F (GeneID 36931)	DRSC06022	1.49e6	1.59e6	1.13e6	1.18e6	inactive
70	meep (GeneID 261663)	DRSC07948	1.49e6	1.52e6	1.03e6	1.16e6	inactive
71	Schip1 (GeneID 34393)	DRSC02851	1.87e6	1.94e6	1.23e6	1.39e6	inactive
72	CG12128 + CG1407	DRSC06446	1.40e6	1.46e6	1.08e6	1.14e6	inactive
73	CG2006 + Spase12	DRSC14316	1.51e6	1.53e6	9.92e5	1.14e6	inactive
74	TrpRS-m (GeneID 39989)	DRSC10848	1.38e6	1.42e6	1.21e6	1.23e6	inactive
75	Rpi (GeneID 246599)	DRSC04583	1.66e6	1.70e6	1.27e6	1.38e6	inactive

Part of the list above, reformatted.
{"gene knocked down":"Ucp4A (GeneID 32764)","amplicon":"DRSC19996","Kc cell number, rep 1":1.55e6,"Kc cell number, rep 2":1.54e6,"S2R+ cell number, rep 1":1.03e6,"S2R+ cell number, rep 2":1.17e6,"Outcome":"inactive"}
{"gene knocked down":"TfIIS (GeneID 34883)","amplicon":"DRSC03455","Kc cell number, rep 1":1.35e6,"Kc cell number, rep 2":1.42e6,"S2R+ cell number, rep 1":1.24e6,"S2R+ cell number, rep 2":1.25e6,"Outcome":"inactive"}
{"gene knocked down":"CG3907 (GeneID 37832)","amplicon":"DRSC04432","Kc cell number, rep 1":1.55e6,"Kc cell number, rep 2":1.54e6,"S2R+ cell number, rep 1":1.21e6,"S2R+ cell number, rep 2":1.35e6,"Outcome":"inactive"}
{"gene knocked down":"sug (GeneID 36424)","amplicon":"DRSC06855","Kc cell number, rep 1":1.44e6,"Kc cell number, rep 2":1.47e6,"S2R+ cell number, rep 1":1.27e6,"S2R+ cell number, rep 2":1.31e6,"Outcome":"inactive"}
{"gene knocked down":"CG31924 (GeneID 319030)","amplicon":"DRSC00689","Kc cell number, rep 1":1.60e6,"Kc cell number, rep 2":1.64e6,"S2R+ cell number, rep 1":1.07e6,"S2R+ cell number, rep 2":1.24e6,"Outcome":"inactive"}
{"gene knocked down":"CG15822 (GeneID 38273)","amplicon":"DRSC08482","Kc cell number, rep 1":1.45e6,"Kc cell number, rep 2":1.29e6,"S2R+ cell number, rep 1":9.92e5,"S2R+ cell number, rep 2":1.28e6,"Outcome":"inactive"}
{"gene knocked down":"CG15822 (GeneID 38273)","amplicon":"DRSC08483","Kc cell number, rep 1":1.44e6,"Kc cell number, rep 2":1.26e6,"S2R+ cell number, rep 1":9.16e5,"S2R+ cell number, rep 2":1.19e6,"Outcome":"inactive"}
